Reference: the supplement of paper PMC10849652
The other results are listed elsewhere or left out.

By UniProt entry, the sequences of proteins in these tests, tags left out. Where a name states a change or a piece, a line headed by the entry shows the natural chain unless it says otherwise.
UniProt Q96I24: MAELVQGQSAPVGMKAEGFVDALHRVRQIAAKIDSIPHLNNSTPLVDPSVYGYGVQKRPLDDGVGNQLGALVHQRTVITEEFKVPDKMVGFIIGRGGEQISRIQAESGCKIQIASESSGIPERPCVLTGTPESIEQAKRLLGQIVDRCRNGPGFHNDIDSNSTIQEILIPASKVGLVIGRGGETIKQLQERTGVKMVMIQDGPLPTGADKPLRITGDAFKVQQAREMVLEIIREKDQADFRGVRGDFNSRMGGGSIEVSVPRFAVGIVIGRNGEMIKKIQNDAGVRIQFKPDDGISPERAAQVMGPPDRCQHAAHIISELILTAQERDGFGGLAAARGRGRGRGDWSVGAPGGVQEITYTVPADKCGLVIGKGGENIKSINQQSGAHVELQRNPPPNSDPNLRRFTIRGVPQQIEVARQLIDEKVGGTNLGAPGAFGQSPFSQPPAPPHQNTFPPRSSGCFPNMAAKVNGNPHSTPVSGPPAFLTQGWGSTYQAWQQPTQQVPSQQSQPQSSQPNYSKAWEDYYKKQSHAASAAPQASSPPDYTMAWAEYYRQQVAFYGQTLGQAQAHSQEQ
UniProt P22102: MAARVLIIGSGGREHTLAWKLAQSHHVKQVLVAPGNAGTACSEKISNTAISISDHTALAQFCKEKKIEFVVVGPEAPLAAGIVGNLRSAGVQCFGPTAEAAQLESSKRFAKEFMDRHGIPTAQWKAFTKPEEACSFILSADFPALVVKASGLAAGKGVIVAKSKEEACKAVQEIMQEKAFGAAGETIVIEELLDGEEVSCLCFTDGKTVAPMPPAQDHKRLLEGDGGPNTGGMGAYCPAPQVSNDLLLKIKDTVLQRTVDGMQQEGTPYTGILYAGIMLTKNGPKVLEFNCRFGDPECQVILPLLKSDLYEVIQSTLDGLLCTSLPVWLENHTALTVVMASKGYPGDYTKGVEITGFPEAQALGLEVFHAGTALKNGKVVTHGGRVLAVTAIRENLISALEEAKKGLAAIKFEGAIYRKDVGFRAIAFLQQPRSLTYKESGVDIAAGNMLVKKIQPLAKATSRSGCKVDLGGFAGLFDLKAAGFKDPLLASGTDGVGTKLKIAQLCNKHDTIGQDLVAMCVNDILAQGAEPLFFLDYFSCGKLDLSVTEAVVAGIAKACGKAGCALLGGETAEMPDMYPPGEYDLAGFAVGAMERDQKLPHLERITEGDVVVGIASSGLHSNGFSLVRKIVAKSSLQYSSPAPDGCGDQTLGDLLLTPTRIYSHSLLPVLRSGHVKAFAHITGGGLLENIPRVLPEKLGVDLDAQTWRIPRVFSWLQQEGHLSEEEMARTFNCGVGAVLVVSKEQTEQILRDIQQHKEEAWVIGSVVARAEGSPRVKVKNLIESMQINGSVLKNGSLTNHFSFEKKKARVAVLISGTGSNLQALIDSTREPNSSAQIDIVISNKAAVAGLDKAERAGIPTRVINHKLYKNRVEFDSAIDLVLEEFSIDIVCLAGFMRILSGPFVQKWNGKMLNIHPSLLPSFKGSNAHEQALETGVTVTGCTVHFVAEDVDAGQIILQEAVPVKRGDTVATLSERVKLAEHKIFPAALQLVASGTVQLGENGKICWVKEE
UniProt Q96AE4: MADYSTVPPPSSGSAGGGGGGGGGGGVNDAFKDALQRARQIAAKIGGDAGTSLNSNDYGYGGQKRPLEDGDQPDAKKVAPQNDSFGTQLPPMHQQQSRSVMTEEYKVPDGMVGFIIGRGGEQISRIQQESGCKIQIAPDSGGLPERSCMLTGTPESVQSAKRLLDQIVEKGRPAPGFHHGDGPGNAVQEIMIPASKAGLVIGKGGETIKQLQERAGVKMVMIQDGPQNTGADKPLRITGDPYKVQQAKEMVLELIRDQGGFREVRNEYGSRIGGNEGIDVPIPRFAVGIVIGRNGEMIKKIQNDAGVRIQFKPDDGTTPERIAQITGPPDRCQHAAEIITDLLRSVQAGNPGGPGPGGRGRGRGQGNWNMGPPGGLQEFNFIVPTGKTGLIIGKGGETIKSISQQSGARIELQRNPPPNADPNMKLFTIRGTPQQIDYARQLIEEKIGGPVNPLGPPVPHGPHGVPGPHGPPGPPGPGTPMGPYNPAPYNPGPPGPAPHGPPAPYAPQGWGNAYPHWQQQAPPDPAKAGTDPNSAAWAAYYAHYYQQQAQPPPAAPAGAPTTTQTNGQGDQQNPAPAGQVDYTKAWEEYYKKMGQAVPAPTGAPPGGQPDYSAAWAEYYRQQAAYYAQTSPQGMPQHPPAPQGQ
UniProt Q9UET6: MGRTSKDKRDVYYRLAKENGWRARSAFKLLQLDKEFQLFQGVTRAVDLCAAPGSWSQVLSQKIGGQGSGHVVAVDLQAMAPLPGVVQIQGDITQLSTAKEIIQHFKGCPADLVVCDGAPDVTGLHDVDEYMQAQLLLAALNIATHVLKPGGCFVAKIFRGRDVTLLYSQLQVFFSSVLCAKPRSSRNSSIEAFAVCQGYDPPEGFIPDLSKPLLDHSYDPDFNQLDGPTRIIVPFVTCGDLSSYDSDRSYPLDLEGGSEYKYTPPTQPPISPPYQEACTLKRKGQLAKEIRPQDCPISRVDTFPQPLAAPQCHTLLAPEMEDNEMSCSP
UniProt Q14697: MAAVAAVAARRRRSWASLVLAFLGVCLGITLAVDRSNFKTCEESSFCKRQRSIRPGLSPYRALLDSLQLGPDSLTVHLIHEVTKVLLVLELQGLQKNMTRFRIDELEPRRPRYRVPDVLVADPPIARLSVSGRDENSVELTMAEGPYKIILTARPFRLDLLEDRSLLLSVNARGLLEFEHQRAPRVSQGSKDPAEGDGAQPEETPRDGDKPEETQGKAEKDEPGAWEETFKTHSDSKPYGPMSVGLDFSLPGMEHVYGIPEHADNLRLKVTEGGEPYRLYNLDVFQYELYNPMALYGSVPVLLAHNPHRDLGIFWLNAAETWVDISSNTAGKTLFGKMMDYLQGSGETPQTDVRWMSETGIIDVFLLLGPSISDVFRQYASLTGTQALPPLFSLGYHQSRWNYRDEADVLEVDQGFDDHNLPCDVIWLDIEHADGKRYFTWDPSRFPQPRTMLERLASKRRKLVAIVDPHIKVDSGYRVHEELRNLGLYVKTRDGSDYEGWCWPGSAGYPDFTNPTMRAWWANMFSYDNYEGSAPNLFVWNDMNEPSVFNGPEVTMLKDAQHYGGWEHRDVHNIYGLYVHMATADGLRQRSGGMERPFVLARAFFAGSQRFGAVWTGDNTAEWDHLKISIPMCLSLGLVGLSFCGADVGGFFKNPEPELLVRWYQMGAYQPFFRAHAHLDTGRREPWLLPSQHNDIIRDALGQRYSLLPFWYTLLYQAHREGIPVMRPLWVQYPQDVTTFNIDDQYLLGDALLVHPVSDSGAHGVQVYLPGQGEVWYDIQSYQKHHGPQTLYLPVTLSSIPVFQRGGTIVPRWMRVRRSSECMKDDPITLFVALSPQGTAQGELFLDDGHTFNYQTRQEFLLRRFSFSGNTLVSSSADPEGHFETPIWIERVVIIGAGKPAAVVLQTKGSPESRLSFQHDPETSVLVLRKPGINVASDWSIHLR
UniProt Q8NB37: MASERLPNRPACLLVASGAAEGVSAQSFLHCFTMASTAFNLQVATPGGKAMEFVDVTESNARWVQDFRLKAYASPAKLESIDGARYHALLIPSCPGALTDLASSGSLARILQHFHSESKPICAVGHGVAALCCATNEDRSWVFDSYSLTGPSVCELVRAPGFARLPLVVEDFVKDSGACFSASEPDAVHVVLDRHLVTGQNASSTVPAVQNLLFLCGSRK
UniProt Q8WXD5: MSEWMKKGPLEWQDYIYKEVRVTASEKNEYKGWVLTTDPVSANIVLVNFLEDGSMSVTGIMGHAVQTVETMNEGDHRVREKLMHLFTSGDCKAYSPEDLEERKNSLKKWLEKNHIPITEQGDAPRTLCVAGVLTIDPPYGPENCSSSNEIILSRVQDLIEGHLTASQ
UniProt O95749: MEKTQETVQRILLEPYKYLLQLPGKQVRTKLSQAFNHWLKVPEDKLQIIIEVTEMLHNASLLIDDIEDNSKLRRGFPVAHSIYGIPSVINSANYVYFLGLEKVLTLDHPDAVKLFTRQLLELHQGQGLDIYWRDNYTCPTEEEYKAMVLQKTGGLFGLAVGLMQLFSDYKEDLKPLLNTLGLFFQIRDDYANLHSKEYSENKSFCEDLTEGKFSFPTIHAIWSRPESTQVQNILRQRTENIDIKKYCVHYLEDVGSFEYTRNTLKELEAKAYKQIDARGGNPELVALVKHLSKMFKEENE
UniProt Q06546: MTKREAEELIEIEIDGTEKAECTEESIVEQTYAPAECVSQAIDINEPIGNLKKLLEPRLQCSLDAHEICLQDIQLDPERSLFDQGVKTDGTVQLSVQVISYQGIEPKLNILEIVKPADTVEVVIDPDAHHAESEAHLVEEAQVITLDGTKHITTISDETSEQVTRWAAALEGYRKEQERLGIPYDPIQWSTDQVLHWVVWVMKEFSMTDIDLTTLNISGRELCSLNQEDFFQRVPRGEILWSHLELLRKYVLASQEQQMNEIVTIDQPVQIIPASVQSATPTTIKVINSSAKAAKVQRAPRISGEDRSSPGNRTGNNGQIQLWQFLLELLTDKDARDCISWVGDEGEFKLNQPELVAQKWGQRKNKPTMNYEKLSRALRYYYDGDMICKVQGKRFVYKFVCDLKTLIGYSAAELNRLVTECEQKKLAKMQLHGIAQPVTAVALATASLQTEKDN
UniProt Q6ZNA5: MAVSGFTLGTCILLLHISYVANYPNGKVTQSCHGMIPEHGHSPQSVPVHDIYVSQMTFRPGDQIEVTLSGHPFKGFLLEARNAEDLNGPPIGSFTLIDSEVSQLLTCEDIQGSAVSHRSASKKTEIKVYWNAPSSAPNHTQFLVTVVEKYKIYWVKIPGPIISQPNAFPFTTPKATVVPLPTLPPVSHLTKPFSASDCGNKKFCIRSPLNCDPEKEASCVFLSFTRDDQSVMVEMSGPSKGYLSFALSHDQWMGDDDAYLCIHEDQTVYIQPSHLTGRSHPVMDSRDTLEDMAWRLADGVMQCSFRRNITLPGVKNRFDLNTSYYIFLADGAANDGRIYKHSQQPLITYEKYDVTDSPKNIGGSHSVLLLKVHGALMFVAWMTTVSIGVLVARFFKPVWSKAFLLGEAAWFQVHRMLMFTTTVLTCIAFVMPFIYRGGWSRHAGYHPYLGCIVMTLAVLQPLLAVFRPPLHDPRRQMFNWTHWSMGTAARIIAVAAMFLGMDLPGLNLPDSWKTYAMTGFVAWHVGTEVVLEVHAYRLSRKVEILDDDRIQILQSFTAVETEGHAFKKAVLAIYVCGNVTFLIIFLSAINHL
UniProt O75600: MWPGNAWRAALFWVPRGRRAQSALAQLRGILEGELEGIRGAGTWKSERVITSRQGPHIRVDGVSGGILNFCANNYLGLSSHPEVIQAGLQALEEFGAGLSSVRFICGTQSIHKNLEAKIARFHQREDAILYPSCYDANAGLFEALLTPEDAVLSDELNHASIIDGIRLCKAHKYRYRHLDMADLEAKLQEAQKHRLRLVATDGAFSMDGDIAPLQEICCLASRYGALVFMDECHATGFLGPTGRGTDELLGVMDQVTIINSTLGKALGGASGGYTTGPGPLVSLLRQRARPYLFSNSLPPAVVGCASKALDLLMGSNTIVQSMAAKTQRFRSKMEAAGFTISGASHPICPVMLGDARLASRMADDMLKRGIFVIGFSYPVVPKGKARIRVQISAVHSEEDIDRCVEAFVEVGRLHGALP
UniProt P15976: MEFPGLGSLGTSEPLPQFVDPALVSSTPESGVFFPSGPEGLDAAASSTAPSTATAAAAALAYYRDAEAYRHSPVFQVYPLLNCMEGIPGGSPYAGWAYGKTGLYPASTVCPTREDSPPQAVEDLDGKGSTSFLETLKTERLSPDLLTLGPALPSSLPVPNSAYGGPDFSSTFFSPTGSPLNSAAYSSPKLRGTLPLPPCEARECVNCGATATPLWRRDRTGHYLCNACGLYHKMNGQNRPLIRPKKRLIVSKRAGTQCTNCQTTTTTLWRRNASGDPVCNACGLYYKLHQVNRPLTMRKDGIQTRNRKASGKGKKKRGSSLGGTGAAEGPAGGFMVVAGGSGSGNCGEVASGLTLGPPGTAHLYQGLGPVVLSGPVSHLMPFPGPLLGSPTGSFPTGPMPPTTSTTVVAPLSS
UniProt Q9H0R8, whole entry, looked up: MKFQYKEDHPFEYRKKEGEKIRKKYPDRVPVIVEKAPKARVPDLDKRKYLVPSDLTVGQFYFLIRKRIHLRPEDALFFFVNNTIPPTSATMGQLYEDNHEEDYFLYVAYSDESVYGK
UniProt Q8TB36: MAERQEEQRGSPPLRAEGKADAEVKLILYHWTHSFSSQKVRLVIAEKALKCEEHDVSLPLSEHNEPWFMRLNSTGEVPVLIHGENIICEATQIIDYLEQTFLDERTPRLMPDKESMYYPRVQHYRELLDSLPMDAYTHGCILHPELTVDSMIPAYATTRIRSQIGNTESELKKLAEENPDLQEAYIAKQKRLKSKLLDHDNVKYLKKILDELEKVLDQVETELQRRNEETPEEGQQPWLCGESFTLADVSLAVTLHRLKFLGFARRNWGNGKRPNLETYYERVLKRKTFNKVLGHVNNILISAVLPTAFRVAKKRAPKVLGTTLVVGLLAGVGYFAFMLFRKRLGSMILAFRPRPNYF

compound: COc1cc(C(=O)O)ccc1NC(=O)[C@@H]1N[C@@H](CC(C)(C)C)[C@](C#N)(c2ccc(Cl)cc2F)[C@H]1c1cccc(Cl)c1F [idasanutlin]; experiment: log2 fold change, soluble protein after heating vs DMSO (PISA); higher = thermal stabilisation; K562 cells, 10 uM, 30 min; active = over 0.2 and 3.5 SD of the protein, either way, in both replicates (recomputed)
Procedure, shortened: (§1)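 Thermal stability values are relative to control samples and come from duplicates. They are expressed as log2 fold changes. For measurement, K562 cells (2×10^6 cells/mL) received 10 μM compound for 30 min, and aliquots were heated for 3 min over 48°C-58°C, pooled, and extracted at 4°C in PBS with 0.5% NP-40. Soluble protein, the supernatant after 21,000xg for 90 min, was quantified by TMTpro 16plex LC-MS/MS with equalised channel sums.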

log2 fold change, inactive:
FUBP3 (UniProt Q96I24) 0.049
GART (UniProt P22102) -0.052
FUBP1 isoform 2 (UniProt Q96AE4) 0.001
FTSJ1 (UniProt Q9UET6) -0.048
GANAB isoform 2 (UniProt Q14697) 0.022
GATD1 (UniProt Q8NB37) -0.038
GEMIN6 (UniProt Q8WXD5) 0.071
GGPS1 (UniProt O95749) 0.015
GABPA (UniProt Q06546) -0.025
FRRS1 (UniProt Q6ZNA5) 0.028

compound: COc1cc(Nc2ncc3c(n2)-c2ccc(Cl)cc2C(c2c(F)cccc2OC)=NC3)ccc1C(=O)O [alisertib]; experiment: as above
Procedure, shortened: as §1

log2 fold change, inactive:
GALE (UniProt Q14376) -0.001
GALC (UniProt P54803) 0.049
GCAT isoform 2 (UniProt O75600) 0.022
GBA (UniProt P04062) 0.3
GATA1 (UniProt P15976) 0.02
GGNBP2 (UniProt Q9H3C7) 0.052
GALNS (UniProt P34059) -0.145
GHITM (UniProt Q9H3K2) -0.009
GATAD2A isoform 3 (UniProt Q86YP4) -0.057
GAK (UniProt O14976) -0.025
FSCN1 (UniProt Q16658) -0.067
GADD45GIP1 (UniProt Q8TAE8) -0.035
GART (UniProt C9JZG2) 0.073
GCN1 (UniProt Q92616) -0.111
GABARAPL1 isoform 2 (UniProt Q9H0R8) 0.024
FRG1 (UniProt Q14331) -0.044
GDAP1 (UniProt Q8TB36) -0.049
GCLC (UniProt P48506) -0.033
G3BP2 (UniProt Q9UN86) -0.023
GFPT1 (UniProt Q06210) -0.027
FUT11 (UniProt Q495W5) -0.1
FXR2 (UniProt P51116) -0.159
FUCA2 (UniProt Q9BTY2) -0.044
FUBP3 (UniProt Q96I24) 0.034
GART (UniProt P22102) -0.008
FUBP1 isoform 2 (UniProt Q96AE4) -0.035
FTSJ1 (UniProt Q9UET6) -0.125
GANAB isoform 2 (UniProt Q14697) -0.128
GATD1 (UniProt Q8NB37) -0.001
GEMIN6 (UniProt Q8WXD5) -0.019
GGPS1 (UniProt O95749) -0.058
GABPA (UniProt Q06546) -0.002
FRRS1 (UniProt Q6ZNA5) -0.001

compound: COc1cc2nc(-c3cc(F)ccc3O)nc(N[C@@H]3CNC[C@H]3C(C)(C)O)c2cc1OC; experiment: as above
Procedure, shortened: as §1

log2 fold change, inactive:
GALE (UniProt Q14376) -0.001
GALC (UniProt P54803) 0.099
GCAT isoform 2 (UniProt O75600) -0.113
GBA (UniProt P04062) -0.098
GATA1 (UniProt P15976) 0.07
GGNBP2 (UniProt Q9H3C7) -0.01
GALNS (UniProt P34059) -0.051
GHITM (UniProt Q9H3K2) -0.18
GATAD2A isoform 3 (UniProt Q86YP4) -0.061
GAK (UniProt O14976) 1.44
FSCN1 (UniProt Q16658) -0.041
GADD45GIP1 (UniProt Q8TAE8) -0.072
GART (UniProt C9JZG2) 0.141
GCN1 (UniProt Q92616) 0.045
GABARAPL1 isoform 2 (UniProt Q9H0R8) 0.007
FRG1 (UniProt Q14331) 0.053
GDAP1 (UniProt Q8TB36) 0.001
GCLC (UniProt P48506) 0.061
G3BP2 (UniProt Q9UN86) -0.085
GFPT1 (UniProt Q06210) -0.024
FUT11 (UniProt Q495W5) -0.12
FXR2 (UniProt P51116) -0.003
FUCA2 (UniProt Q9BTY2) 0.011
FUBP3 (UniProt Q96I24) 0.165
GART (UniProt P22102) -0.014
FUBP1 isoform 2 (UniProt Q96AE4) 0.04
FTSJ1 (UniProt Q9UET6) 0.007
GANAB isoform 2 (UniProt Q14697) -0.001
GATD1 (UniProt Q8NB37) 0.018
GEMIN6 (UniProt Q8WXD5) 0.006
GGPS1 (UniProt O95749) -0.001
GABPA (UniProt Q06546) -0.134
FRRS1 (UniProt Q6ZNA5) -0.134
